These are yes or no findings as the source states them, for the method shown. In cells and extracts the contact can be indirect. Some results given as binding are weak or reduced against the parent protein; the word gives no strength.
Molecular target: Arabidopsis basic leucine zipper (bZIP) transcription factor bZIP63 (Arabidopsis) (UniProt B9DGI8)
Assay: split reporter; BiFC (split YFP) in onion epidermal cells, particle bombardment, 18 h at 23 °C, fluorescence microscopy

binding: binds
B1: Arabidopsis basic leucine zipper (bZIP) transcription factor bZIP63 (protein, UniProt B9DGI8 1-314)
chain: MEKVFSDEEISGNHHWSVNGMTSLNRSASEWAFNRFIQESSAAADDGESTTACGVSVSSPPNVPVDSEEYRAFLKSKLNLACAAVAMKRGTFIKPQDTSGRSDNGGANESEQASLASSKATPMMSSAITSGSELSGDEEEADGETNMNPTNVKRVKRMLSNRESARRSRRRKQAHLSELETQVSQLRVENSKLMKGLTDVTQTFNDASVENRVLKANIETLRAKVKMAEETVKRLTGFNPMFHNMPQIVSTVSLPSETSNSPDTTSSQVTTPEIISSGNKGKALIGCKMNRTASMRRVESLEHLQKRIRSVGDQ
